Reference: PubChem BioAssay AID504784 (Drosophila RNAi Screening Center, 2011)
Screen: 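Genome-wide knock-down for genes giving too much or too little stored lipid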 (primary screen). Cell system: Drosophila Kc167 embryonic cells. Reagents: long dsRNA against Drosophila genes, about 250 ng dsRNA per well. Duration: 4 days. Conditions: cells fed 400 µM oleic acid bound to BSA. Read-out: 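Cells imaged and segmented; ratio of lipid droplet area to nuclear area, log-transformed, then normalised as a B-score over the screen; higher means more stored lipid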. Direction: droplet/nuclear area B-score: higher = more stored lipid (overstorage).
The screen tested about 17,000 reagents; shown is an unselected part of those with a known target gene and a result. 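Each column is one replicate's B-score; the combined score over replicates was not deposited, so single values may mislead.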 A plus sign joins genes that one reagent is predicted to hit. Not all columns of the deposit are shown.

target | dsRNA | droplet/nuclear area B-score, replicate 1 | droplet/nuclear area B-score, replicate 2
l(3)76BDm | DRSC11047 | 2.16 | -1.9
trus | DRSC15772 | -0.00634 | 1.32
Cyp304a1 | DRSC16623 | 0.525 | -0.498
AP-1mu | DRSC14089 | -0.132 | 6.57
Meics | DRSC11413 | -0.444 | -0.00233
Obp99a | DRSC15303 | 2.44 | 0.353
stil | DRSC07699 | -2.04 | 0.395
CG12479 | DRSC19459 | 0.0941 | -1.7
MED24 | DRSC10944 | -0.853 | -0.79
l(3)62Be (retired record) | DRSC08231 | -0.0813 | -0.173
Spn77Bb + Spn77Bc | DRSC10689 | -0.694 | -0.079
Spn77Bb + Spn77Bc | DRSC11793 | -0.098 | -0.247
REG | DRSC20273 | 0.0824 | -0.349
antr | DRSC22392 | -0.896 | -0.0438
Pvr | DRSC03080 | -0.916 | -0.214
CG17380 | DRSC15230 | -0.726 | 0.178
Hcf | DRSC17143 | 1.94 | 1.36
spn-E | DRSC17064 | 1.74 | 0.346
N | DRSC18685 | 0.361 | 0.819
Nubp1 | DRSC02639 | -2.63 | -0.487
cpb | DRSC00809 | -0.0972 | 1.39
eRF1 | DRSC11779 | -0.029 | 1.8
CG5335 | DRSC06931 | -0.0328 | 0.093
snoRNA:Me28S-C3227a + snoRNA:Me18S-A1061 + snoRNA:Me28S-C3227b + 7 more | DRSC05497 | 0.322 | 0.0109
drongo | DRSC00814 | -1.62 | -1.63
Diedel | DRSC14317 | 0.211 | -0.56
Dscam4 | DRSC08913 | -4.91 | 0.943
Dscam4 | DRSC10031 | 0.79 | 0.0529
Dscam4 | DRSC10329 | 3.43 | 2.42
Dscam4 | DRSC10765 | 0.842 | -2.77
CG16772 | DRSC02516 | -1.75 | -0.949
CG4020 | DRSC18337 | 2.66 | 0.0141
Dis3l2 | DRSC08496 | -0.937 | 1.2
CG13558 | DRSC04196 | 0.73 | -1.96
Neos | DRSC11235 | 0.547 | -0.832
CG15047 | DRSC19623 | 0.0382 | -0.482
CG15047 | DRSC21443 | 0.437 | -3.61
Hdc | DRSC07439 | 1.35 | 1.55
Elp1 | DRSC14250 | -5.08 | 8.25
CG4372 | DRSC04466 | 0.539 | -0.19
CG13693 | DRSC00362 | -1.19 | 1.48
LSm1 | DRSC04458 | 2.44 | -3.14
CG13858 (retired record) | DRSC14708 | -2.01 | 0.267
CG13858 (retired record) | DRSC14709 | -0.498 | 0.757
CG13858 (retired record) | DRSC14710 | -1.89 | -0.313
CG13858 (retired record) | DRSC14711 | -0.893 | -0.442
TwdlQ | DRSC14745 | -2.11 | 0.229
TwdlQ | DRSC23107 | 0.339 | -0.229
Tmep | DRSC08215 | 0.221 | -0.473
CG8850 | DRSC07287 | 0.661 | -0.514
Oat | DRSC11043 | 0.324 | 0.263
Abp1 | DRSC09693 | -2.85 | -1.64
CG3009 | DRSC18263 | -1.36 | 0.196
akirin | DRSC11000 | -0.0494 | -0.0527
CG9411 | DRSC20184 | 0.94 | 1.17
Dro | DRSC07406 | -0.319 | –
CG7744 | DRSC07036 | 1.13 | -0.188
Grip91 | DRSC20249 | -0.0135 | -0.746
CG11882 | DRSC14425 | -0.668 | -0.753
dpr11 | DRSC12561 | -0.216 | 0.481
dpr11 | DRSC12562 | 0.00987 | -0.429
dpr11 | DRSC12563 | 0.361 | -0.81
CG2861 | DRSC18229 | 0.0678 | 0.931
Ptp99A | DRSC13933 | -0.764 | 1.17
Ptp99A | DRSC13939 | 1.4 | 0.132
Ptp99A | DRSC14319 | 0.854 | -0.562
Ptp99A | DRSC14320 | -0.315 | -0.738
Ptp99A | DRSC16803 | -0.974 | -1.17
Ptp99A | DRSC22125 | 0.757 | 0.426
Ptp99A | DRSC22477 | 1.5 | 0.154
Ptp99A | DRSC23033 | 0.106 | -0.971
TfIIB | DRSC03454 | 0.0435 | -0.000552
hubl | DRSC06825 | 0.427 | 0.412
CG14932 | DRSC02414 | 0.118 | 1.94
AANATL2 | DRSC03227 | -0.00379 | -0.1
Yip1d1 | DRSC02166 | 6.28 | -0.832
Uch-L5R | DRSC19825 | 0.121 | -0.00199
Vha36-1 | DRSC07098 | – | -0.462
Frq1 | DRSC19961 | 0.0884 | -0.507
CG7772 | DRSC20056 | 0.546 | 0.618
CG14326 | DRSC14805 | 1.2 | -0.707
agt | DRSC12611 | 1.6 | 1.37
CG30062 | DRSC21737 | 0.804 | 0.123

9 neighbouring reagents from above, for reference:
target | dsRNA | droplet/nuclear area B-score, replicate 1 | droplet/nuclear area B-score, replicate 2
stil | DRSC07699 | -2.04 | 0.395
CG12479 | DRSC19459 | 0.0941 | -1.7
MED24 | DRSC10944 | -0.853 | -0.79
l(3)62Be (retired record) | DRSC08231 | -0.0813 | -0.173
Spn77Bb + Spn77Bc | DRSC10689 | -0.694 | -0.079
Spn77Bb + Spn77Bc | DRSC11793 | -0.098 | -0.247
REG | DRSC20273 | 0.0824 | -0.349
antr | DRSC22392 | -0.896 | -0.0438
Pvr | DRSC03080 | -0.916 | -0.214
